# The list shows a part of the results.
# By UniProt entry, the sequences of proteins in these tests, tags left out. Where a name states a change or a piece, a line headed by the entry shows the natural chain unless it says otherwise.
# UniProt P30626: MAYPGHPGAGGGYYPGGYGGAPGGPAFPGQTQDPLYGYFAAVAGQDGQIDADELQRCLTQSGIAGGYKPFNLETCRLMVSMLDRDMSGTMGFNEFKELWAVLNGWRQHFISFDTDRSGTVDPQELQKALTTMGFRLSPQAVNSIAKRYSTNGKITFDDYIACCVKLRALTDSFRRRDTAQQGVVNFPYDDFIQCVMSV
# UniProt Q8IYB3: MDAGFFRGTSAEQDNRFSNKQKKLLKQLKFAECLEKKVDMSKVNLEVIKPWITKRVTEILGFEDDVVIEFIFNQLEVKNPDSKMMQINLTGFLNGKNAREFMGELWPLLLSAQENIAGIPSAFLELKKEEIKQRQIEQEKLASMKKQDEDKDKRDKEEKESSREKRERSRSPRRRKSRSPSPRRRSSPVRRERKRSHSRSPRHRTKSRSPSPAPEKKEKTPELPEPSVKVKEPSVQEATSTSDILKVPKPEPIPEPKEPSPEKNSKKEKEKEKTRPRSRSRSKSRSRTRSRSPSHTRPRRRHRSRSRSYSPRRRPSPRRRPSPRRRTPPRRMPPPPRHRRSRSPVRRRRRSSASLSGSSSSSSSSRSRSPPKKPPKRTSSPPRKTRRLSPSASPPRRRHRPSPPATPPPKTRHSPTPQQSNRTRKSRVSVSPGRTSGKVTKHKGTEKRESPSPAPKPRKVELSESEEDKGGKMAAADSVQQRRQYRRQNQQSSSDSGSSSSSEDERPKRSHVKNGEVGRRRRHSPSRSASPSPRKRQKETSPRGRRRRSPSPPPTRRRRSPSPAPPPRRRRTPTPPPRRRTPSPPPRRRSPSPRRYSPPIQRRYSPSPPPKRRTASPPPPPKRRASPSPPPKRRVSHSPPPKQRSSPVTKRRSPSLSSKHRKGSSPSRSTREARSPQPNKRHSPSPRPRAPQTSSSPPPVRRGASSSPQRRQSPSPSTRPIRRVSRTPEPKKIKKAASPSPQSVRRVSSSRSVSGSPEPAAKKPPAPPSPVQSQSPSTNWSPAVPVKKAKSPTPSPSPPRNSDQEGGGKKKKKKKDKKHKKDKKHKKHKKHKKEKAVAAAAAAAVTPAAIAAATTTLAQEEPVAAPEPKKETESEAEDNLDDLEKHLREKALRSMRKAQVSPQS
# UniProt Q9BYN0: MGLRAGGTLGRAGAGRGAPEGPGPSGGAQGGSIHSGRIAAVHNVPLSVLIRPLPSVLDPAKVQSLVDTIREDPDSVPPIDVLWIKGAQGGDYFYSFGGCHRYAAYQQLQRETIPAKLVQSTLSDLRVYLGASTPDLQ
# UniProt Q13243: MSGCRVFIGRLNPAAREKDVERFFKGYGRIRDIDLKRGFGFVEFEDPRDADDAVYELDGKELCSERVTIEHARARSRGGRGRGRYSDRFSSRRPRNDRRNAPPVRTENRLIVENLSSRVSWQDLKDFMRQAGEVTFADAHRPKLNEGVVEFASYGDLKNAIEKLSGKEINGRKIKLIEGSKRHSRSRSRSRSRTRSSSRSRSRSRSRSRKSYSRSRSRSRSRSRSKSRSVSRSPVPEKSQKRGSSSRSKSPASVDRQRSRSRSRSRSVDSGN
# UniProt Q96SB4, whole entry, looked up: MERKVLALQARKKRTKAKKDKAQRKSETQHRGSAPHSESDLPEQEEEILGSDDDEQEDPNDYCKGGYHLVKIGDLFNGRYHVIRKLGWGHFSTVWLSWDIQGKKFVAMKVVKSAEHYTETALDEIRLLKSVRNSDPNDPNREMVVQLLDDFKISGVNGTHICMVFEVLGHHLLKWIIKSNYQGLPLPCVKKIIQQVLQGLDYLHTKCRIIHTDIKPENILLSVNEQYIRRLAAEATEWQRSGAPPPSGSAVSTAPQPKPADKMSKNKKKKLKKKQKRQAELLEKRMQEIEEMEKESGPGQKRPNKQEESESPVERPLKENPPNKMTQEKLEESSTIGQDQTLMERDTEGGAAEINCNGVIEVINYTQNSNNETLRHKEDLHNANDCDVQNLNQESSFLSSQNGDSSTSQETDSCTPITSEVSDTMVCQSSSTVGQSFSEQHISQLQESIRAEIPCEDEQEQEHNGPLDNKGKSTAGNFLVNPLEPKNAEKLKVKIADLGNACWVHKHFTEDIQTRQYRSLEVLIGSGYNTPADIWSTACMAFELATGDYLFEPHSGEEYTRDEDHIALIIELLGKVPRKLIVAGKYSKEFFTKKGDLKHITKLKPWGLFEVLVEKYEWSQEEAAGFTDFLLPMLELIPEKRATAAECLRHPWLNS
# UniProt Q9NZD8: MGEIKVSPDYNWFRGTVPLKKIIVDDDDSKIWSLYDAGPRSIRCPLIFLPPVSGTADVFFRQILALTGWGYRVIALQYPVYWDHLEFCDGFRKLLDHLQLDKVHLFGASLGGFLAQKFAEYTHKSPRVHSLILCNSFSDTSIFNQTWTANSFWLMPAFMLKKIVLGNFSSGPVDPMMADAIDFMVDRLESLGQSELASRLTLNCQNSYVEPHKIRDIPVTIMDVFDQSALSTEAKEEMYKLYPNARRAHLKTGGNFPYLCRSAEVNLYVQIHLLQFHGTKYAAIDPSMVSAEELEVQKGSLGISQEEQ
# UniProt O43805: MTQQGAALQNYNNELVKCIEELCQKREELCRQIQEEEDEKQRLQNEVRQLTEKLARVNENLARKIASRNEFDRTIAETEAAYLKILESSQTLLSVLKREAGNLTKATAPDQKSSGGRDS
# UniProt Q9NUL3: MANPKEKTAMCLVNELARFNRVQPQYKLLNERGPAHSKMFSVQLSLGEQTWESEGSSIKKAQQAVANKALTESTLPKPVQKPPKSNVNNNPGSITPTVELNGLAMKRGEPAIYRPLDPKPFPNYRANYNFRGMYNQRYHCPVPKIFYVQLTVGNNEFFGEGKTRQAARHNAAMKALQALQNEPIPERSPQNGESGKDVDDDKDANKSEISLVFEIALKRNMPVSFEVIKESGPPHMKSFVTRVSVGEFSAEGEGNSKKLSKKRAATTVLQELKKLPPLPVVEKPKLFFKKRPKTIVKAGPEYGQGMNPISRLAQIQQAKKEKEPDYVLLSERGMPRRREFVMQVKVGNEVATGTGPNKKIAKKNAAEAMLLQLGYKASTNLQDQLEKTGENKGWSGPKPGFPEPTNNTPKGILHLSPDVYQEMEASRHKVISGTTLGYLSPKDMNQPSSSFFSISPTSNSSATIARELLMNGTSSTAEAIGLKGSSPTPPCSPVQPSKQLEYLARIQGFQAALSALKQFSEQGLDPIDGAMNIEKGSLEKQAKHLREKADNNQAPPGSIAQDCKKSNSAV
# UniProt Q8NBT2: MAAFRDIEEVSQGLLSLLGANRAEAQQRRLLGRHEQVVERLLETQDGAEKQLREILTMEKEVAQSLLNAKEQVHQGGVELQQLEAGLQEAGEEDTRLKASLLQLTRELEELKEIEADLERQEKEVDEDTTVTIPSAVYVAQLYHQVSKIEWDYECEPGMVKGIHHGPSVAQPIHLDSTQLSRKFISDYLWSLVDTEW
# UniProt Q9NRC1: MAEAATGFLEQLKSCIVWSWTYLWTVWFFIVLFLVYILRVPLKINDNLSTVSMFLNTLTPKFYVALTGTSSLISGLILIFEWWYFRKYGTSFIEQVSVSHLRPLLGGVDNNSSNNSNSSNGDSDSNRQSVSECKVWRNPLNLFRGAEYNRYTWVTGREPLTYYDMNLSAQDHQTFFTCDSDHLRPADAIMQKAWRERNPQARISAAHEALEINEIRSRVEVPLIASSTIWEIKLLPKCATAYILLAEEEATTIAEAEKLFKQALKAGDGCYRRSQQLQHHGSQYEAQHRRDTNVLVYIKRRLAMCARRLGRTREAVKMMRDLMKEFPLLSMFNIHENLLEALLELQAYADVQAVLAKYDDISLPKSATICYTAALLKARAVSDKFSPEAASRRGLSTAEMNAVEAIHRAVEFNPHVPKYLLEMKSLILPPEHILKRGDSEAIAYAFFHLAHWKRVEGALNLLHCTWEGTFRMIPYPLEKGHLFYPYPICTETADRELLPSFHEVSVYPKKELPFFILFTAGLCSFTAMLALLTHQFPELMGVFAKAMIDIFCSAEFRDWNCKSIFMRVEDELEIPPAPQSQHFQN
# UniProt P51571: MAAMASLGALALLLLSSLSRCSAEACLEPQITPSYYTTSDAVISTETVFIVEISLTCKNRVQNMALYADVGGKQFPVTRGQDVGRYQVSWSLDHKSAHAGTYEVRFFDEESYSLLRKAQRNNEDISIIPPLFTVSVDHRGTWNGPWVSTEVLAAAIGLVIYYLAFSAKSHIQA
# UniProt P35270: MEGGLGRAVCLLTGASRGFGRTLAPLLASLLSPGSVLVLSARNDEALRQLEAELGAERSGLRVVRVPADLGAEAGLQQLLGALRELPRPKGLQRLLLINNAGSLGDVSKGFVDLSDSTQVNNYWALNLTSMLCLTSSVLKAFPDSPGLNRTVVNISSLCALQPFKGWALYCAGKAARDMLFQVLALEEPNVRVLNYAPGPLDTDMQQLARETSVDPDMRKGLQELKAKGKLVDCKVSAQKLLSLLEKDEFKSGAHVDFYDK
# UniProt Q9NYA1, whole entry, looked up: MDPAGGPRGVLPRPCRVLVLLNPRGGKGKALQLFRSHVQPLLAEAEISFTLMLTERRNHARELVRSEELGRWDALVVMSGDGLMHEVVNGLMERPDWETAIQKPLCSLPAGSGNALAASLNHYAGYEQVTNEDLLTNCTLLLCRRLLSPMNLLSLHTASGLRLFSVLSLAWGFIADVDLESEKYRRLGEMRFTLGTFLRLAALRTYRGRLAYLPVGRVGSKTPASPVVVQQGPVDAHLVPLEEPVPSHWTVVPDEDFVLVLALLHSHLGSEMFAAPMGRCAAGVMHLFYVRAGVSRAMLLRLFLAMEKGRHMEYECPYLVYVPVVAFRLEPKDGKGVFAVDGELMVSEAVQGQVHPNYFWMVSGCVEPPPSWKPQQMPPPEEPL
# UniProt Q08170: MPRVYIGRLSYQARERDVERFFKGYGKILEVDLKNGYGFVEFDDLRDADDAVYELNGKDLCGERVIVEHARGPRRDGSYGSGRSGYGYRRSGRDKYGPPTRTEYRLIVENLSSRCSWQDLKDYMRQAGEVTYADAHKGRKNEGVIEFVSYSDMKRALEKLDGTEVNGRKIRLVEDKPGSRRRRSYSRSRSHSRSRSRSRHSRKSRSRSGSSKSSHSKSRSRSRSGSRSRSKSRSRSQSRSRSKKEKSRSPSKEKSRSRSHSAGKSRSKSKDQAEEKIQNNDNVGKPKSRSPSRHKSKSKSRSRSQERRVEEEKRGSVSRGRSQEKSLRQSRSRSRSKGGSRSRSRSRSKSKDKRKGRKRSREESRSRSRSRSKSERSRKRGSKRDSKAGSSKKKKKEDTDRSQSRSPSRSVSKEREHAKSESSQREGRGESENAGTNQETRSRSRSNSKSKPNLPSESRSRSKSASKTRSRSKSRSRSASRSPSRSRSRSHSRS
# UniProt O15269: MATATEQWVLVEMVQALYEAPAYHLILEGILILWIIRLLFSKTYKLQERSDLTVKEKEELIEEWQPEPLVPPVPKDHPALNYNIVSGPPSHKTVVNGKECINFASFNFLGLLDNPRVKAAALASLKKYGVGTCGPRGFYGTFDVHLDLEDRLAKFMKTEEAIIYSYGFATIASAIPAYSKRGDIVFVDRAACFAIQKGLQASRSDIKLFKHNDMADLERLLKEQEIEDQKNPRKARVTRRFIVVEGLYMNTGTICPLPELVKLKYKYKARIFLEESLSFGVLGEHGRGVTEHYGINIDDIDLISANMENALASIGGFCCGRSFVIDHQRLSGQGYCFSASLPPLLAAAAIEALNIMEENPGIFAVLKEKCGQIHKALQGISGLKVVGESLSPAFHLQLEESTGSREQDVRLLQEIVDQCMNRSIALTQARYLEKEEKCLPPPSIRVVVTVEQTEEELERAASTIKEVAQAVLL
# Assays:
# Experiment in all cases: log2 fold change, soluble protein after heating vs DMSO (PISA); higher = thermal stabilisation; K562 lysate, 10 uM; active = over 0.2 and 3.5 SD of the protein, either way, in both replicates (recomputed)
# [1] = compound: C=CC(=O)N1CCC[C@@H](n2nc(-c3ccc(Oc4ccccc4)cc3)c3c(N)ncnc32)C1 [ibrutinib]
# Method in brief: (§1)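 Soluble protein was defined as the supernatant remaining after 21,000xg for 90 min, following pooling of heated aliquots and adjustment to 0.5% NP-40 at 4°C. Before that, crude K562 extract at 1 mg/mL protein in PBS pH 7.4 with 1 mM MgCl2 was treated with 10 μM compound for 30 min and heated for 3 min across 48°C-58°C. Quantification used TMTpro 16plex LC-MS/MS with channel sums equalised, and values are log-two fold changes in thermal stability relative to solvent controls from duplicates.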
# [2] = compound: CC(=O)c1cnc2ccc(-c3cc(Cl)c(O)c(Cl)c3)nc2c1N[C@H]1CC[C@H](CN(C)C)CC1
# Method in brief: as §1
# [3] = compound: CC(C)(C)Cn1c(N)nc2ccc(-c3[nH]c(C(C)(C)C)nc3-c3ccc(F)cc3)nc21 [ralimetinib]
# Method in brief: as §1
# [4] = compound: CC(C)(O)CC(=O)NCCn1ccc2ncnc(Nc3ccc(Oc4cccc(C(F)(F)F)c4)c(Cl)c3)c21
# Method in brief: as §1
# [5] = compound: CC(C)C1=C2N=C(C=C(N2N=C1)NCC3=CC=CC=C3)NCCCCCCN
# Method in brief: as §1
# [6] = compound: CC1=C(C(CC(=O)N1)C2=CC=C(C=C2)C(F)(F)F)C(=O)NC3=C(C=C4C(=C3)C=NN4)F
# Method in brief: as §1
# [7] = compound: CC1=C(C2=C(C=C1)C(=O)C3=CC=CC=C3N2CCCN)C
# Method in brief: as §1
# [8] = compound: CC1=C(C=C(C=C1)NC(=O)C2=CC(=CC=C2)C(C)(C)C#N)NC3=CC4=C(C=C3)N=CN(C4=O)C
# Method in brief: as §1
# [9] = compound: CC1=C(C=C(C=C1)NC(=O)C2=CC(=CC=C2)N(C)C)NC(=O)C3=CC=C(C=C3)O
# Method in brief: as §1
# [10] = compound: CC1=CC=C(C=C1)SC2=C3C=C(SC3=CN=C2)C(=O)N
# Method in brief: as §1
# [11] = compound: CCCS(=O)(=O)Nc1ccc(F)c(C(=O)c2c[nH]c3ncc(-c4ccc(Cl)cc4)cc23)c1F [vemurafenib]
# Method in brief: as §1
# [12] = compound: CCCS(=O)(=O)Nc1ccc(F)c(C(=O)c2c[nH]c3ncc(Cl)cc23)c1F
# Method in brief: as §1
# [13] = compound: CCN(CCCOc1ccc2c(Nc3cc(CC(=O)Nc4cccc(F)c4)[nH]n3)ncnc2c1)CCOP(=O)(O)O [barasertib]
# Method in brief: as §1
# [14] = compound: CC[C@@H]1C(=O)N(C)c2cnc(Nc3ccc(C(=O)NC4CCN(C)CC4)cc3OC)nc2N1C1CCCC1
# Method in brief: as §1
# [15] = compound: CC[C@@H]1C(=O)N(C)c2cnc(Nc3ccc(C(=O)N[C@H]4CC[C@H](N5CCN(CC6CC6)CC5)CC4)cc3OC)nc2N1C(C)C [volasertib]
# Method in brief: as §1
# [16] = compound: CCn1c(C(=O)N(C2CC2)C2CC2)cc2c3c(ncn3C)c(Nc3cc(C)n(C)n3)nc21
# Method in brief: as §1
# [17] = compound: CCn1cc(-c2ccnc3[nH]c(-c4cccc(CN(C)C)c4)cc23)c(-c2ccc(NC(=O)N(C)C)cc2)n1
# Method in brief: as §1
# [18] = compound: CN1CCC(CNc2ccc3ncc(-c4cccc(OC(F)(F)F)c4)n3n2)CC1
# Method in brief: as §1
# [19] = compound: CN1CCN(CCOc2cc(OC3CCOCC3)c3c(Nc4c(Cl)ccc5c4OCO5)ncnc3c2)CC1 [saracatinib]
# Method in brief: as §1
# [20] = compound: CN1CCN(c2nc(C3=C(c4c[nH]c5ccccc45)C(=O)NC3=O)c3ccccc3n2)CC1 [sotrastaurin]
# Method in brief: as §1
Target,log2 fold change [1],log2 fold change [2],log2 fold change [3],log2 fold change [4],log2 fold change [5],log2 fold change [6],log2 fold change [7],log2 fold change [8],log2 fold change [9],log2 fold change [10],log2 fold change [11],log2 fold change [12],log2 fold change [13],log2 fold change [14],log2 fold change [15],log2 fold change [16],log2 fold change [17],log2 fold change [18],log2 fold change [19],log2 fold change [20]
SRI (UniProt P30626),inactive: -0.031,inactive: -0.023,inactive: 0.015,inactive: -0.024,inactive: -0.047,inactive: -0.071,inactive: 0,inactive: 0.039,inactive: -0.014,inactive: 0.062,inactive: -0.013,inactive: -0.001,inactive: 0.041,inactive: -0.016,inactive: 0.085,inactive: -0.001,inactive: 0.01,inactive: -0.061,inactive: 0.006,inactive: -0.056
SRRM1 (UniProt Q8IYB3),inactive: 0.008,inactive: -0.022,inactive: -0.016,inactive: -0.019,inactive: 0.02,inactive: -0.007,inactive: -0.035,inactive: 0,inactive: 0,inactive: 0.029,inactive: -0.103,inactive: 0.014,inactive: 0.008,inactive: -0.007,inactive: 0.004,inactive: 0.003,inactive: 0.035,inactive: -0.018,inactive: -0.023,inactive: -0.07
SRXN1 (UniProt Q9BYN0),inactive: 0.053,inactive: -0.032,inactive: 0.067,inactive: -0.065,inactive: 0.03,inactive: -0.074,inactive: -0.015,inactive: 0.08,inactive: -0.006,inactive: -0.032,inactive: 0.132,inactive: -0.047,inactive: 0.023,inactive: 0.065,inactive: 0.041,inactive: 0.034,inactive: -0.041,inactive: -0.073,inactive: 0.043,inactive: -0.012
SRSF5 (UniProt Q13243),inactive: 0.006,inactive: -0.002,inactive: 0.045,inactive: 0.004,inactive: -0.003,inactive: -0.004,inactive: -0.031,inactive: 0.048,inactive: 0.045,inactive: -0.001,inactive: 0.021,inactive: 0.006,inactive: -0.027,inactive: -0.035,inactive: 0.02,inactive: -0.03,inactive: -0.027,inactive: 0.053,inactive: 0.009,inactive: 0.048
SRPK1 (UniProt Q96SB4),inactive: 0.031,inactive: 0.008,inactive: -0.004,inactive: -0.001,inactive: -0.005,inactive: -0.004,inactive: -0.018,inactive: 0.006,inactive: -0.029,inactive: 0.011,inactive: 0.003,inactive: 0.029,inactive: -0.014,inactive: 0.093,inactive: -0.01,inactive: 0.008,inactive: 0.055,inactive: -0.072,inactive: 0.012,inactive: 0.021
SPG21 (UniProt Q9NZD8),inactive: 0.043,inactive: 0.052,inactive: 0.019,inactive: -0.086,inactive: -0.029,inactive: 0.049,inactive: 0.008,inactive: -0.141,inactive: 0.016,inactive: -0.029,inactive: 0,inactive: 0.035,inactive: 0.015,inactive: -0.046,inactive: -0.111,inactive: -0.03,inactive: -0.027,inactive: -0.028,inactive: 0.017,inactive: 0.048
SSNA1 (UniProt O43805),inactive: 0.187,inactive: 0.017,inactive: -0.049,inactive: 0.012,inactive: 0.003,inactive: -0.012,inactive: -0.026,inactive: 0.013,inactive: 0.02,inactive: -0.024,inactive: -0.067,inactive: -0.022,inactive: 0.134,inactive: 0.075,inactive: 0.027,inactive: 0.016,inactive: -0.005,inactive: -0.002,inactive: 0.013,inactive: 0.004
STAU2 (UniProt Q9NUL3),inactive: 0.036,inactive: -0.019,inactive: 0.056,inactive: 0.009,inactive: 0.044,inactive: 0,inactive: -0.024,inactive: 0.035,inactive: 0.045,inactive: -0.018,inactive: 0.057,inactive: 0.002,inactive: -0.013,inactive: 0.007,inactive: -0.046,inactive: -0.016,inactive: 0.017,inactive: -0.039,inactive: 0.007,inactive: 0.069
SPC24 (UniProt Q8NBT2),inactive: 0.054,inactive: -0.002,inactive: 0.001,inactive: -0.008,inactive: 0,inactive: -0.001,inactive: 0.01,inactive: 0.007,inactive: -0.008,inactive: -0.021,inactive: 0.006,inactive: 0.024,inactive: 0.027,inactive: -0.017,inactive: -0.008,inactive: -0.008,inactive: -0.074,inactive: -0.027,inactive: 0.015,inactive: -0.021
ST7 (UniProt Q9NRC1),inactive: 0.082,inactive: 0.015,inactive: 0,inactive: -0.069,inactive: 0.025,inactive: 0.061,inactive: -0.042,inactive: -0.104,inactive: 0.029,inactive: 0.126,inactive: -0.057,inactive: -0.026,inactive: 0.027,inactive: 0.097,inactive: 0.044,inactive: 0.153,inactive: 0.001,inactive: 0.154,inactive: 0.036,inactive: -0.023
SSR4 (UniProt P51571),inactive: 0.015,inactive: 0.009,inactive: 0.053,inactive: -0.005,inactive: -0.006,inactive: 0.017,inactive: -0.009,inactive: -0.036,inactive: -0.02,inactive: -0.006,inactive: 0.052,inactive: -0.015,inactive: 0.071,inactive: 0.019,inactive: 0.017,inactive: -0.022,inactive: -0.011,inactive: 0.047,inactive: 0.004,inactive: -0.027
SPR (UniProt P35270),inactive: 0.027,inactive: 0.293,inactive: 0.024,inactive: 0,inactive: -0.048,inactive: -0.051,inactive: -0.038,inactive: -0.046,inactive: -0.028,inactive: 0.023,inactive: 0.01,inactive: 0.026,inactive: -0.013,inactive: -0.014,inactive: -0.003,inactive: -0.024,inactive: 0.158,inactive: -0.028,inactive: 0.093,inactive: -0.047
SPHK1 isoform 2 (UniProt Q9NYA1),inactive: -0.088,inactive: 0.029,inactive: 0.124,inactive: 0.061,inactive: 0.021,inactive: 0.041,inactive: 0.041,active: -0.276,inactive: -0.061,inactive: -0.036,inactive: -0.009,inactive: 0.034,inactive: 0.008,inactive: -0.051,inactive: -0.022,inactive: 0.171,inactive: -0.003,inactive: 0.056,inactive: 0.086,inactive: 0.029
SRSF4 (UniProt Q08170),inactive: 0.018,inactive: 0.005,inactive: 0.02,inactive: 0.01,inactive: -0.011,inactive: -0.023,inactive: 0.015,inactive: -0.039,inactive: -0.001,inactive: 0.007,inactive: -0.048,inactive: -0.035,inactive: -0.048,inactive: -0.192,inactive: -0.014,inactive: 0.036,inactive: 0.085,inactive: -0.061,inactive: -0.018,inactive: 0.011
SPTLC1 (UniProt O15269),inactive: -0.021,inactive: 0.005,inactive: 0.009,inactive: -0.007,inactive: -0.05,inactive: -0.005,inactive: -0.004,inactive: 0.034,inactive: 0.022,inactive: -0.002,inactive: 0.016,inactive: -0.017,inactive: 0.005,inactive: 0.038,inactive: 0.001,inactive: -0.009,inactive: -0.029,inactive: -0.028,inactive: 0.035,inactive: -0.014
SPTAN1 (UniProt Q13813),inactive: 0.034,inactive: 0.005,inactive: 0.017,inactive: -0.007,inactive: -0.029,inactive: -0.013,inactive: 0.001,inactive: 0,inactive: 0.011,inactive: -0.012,inactive: -0.008,inactive: 0.01,inactive: 0.011,inactive: 0.033,inactive: 0.005,inactive: 0.004,inactive: -0.05,inactive: 0.016,inactive: 0.025,inactive: 0.004

# Record cards, as listed above. Values in the order: log2 fold change [1] | log2 fold change [2] | log2 fold change [3] | log2 fold change [4] | log2 fold change [5] | log2 fold change [6] | log2 fold change [7] | log2 fold change [8] | log2 fold change [9] | log2 fold change [10] | log2 fold change [11] | log2 fold change [12] | log2 fold change [13] | log2 fold change [14] | log2 fold change [15] | log2 fold change [16] | log2 fold change [17] | log2 fold change [18] | log2 fold change [19] | log2 fold change [20]
# SSNA1 (UniProt O43805) reads inactive: 0.187 | inactive: 0.017 | inactive: -0.049 | inactive: 0.012 | inactive: 0.003 | inactive: -0.012 | inactive: -0.026 | inactive: 0.013 | inactive: 0.02 | inactive: -0.024 | inactive: -0.067 | inactive: -0.022 | inactive: 0.134 | inactive: 0.075 | inactive: 0.027 | inactive: 0.016 | inactive: -0.005 | inactive: -0.002 | inactive: 0.013 | inactive: 0.004
# SSR4 (UniProt P51571) reads inactive: 0.015 | inactive: 0.009 | inactive: 0.053 | inactive: -0.005 | inactive: -0.006 | inactive: 0.017 | inactive: -0.009 | inactive: -0.036 | inactive: -0.02 | inactive: -0.006 | inactive: 0.052 | inactive: -0.015 | inactive: 0.071 | inactive: 0.019 | inactive: 0.017 | inactive: -0.022 | inactive: -0.011 | inactive: 0.047 | inactive: 0.004 | inactive: -0.027
